Where cells or extracts were used, other partners may take part. For some of these results: Protein sequences can lack the tags named with them.
Experiments:
Test in all cases: binding assay
[1] = biological target: Ribosomal protein L41 (Homo sapiens) (UniProt P62945); conditions: yeast three-hybrid; protein in cells; protein details: GAL4 activation domain fusion; label: 5' 32P (EMSA)
RPL26 d4 (Homo sapiens) = RPL26 d4 (Homo sapiens) (UniProt P61254); conditions: binding stated to correlate with p53 induction; assay not specified; protein in cells; protein details: EGFP; label: 5' 32P (EMSA)
[2] = biological target: Ribosomal protein S7 (Homo sapiens) (UniProt P62081); conditions: yeast three-hybrid; protein in cells; protein details: GAL4 activation domain fusion; label: 5' 32P (EMSA)
RPL26 (Homo sapiens) = RPL26 (Homo sapiens) (UniProt P61254); conditions: protein in cells, protein details: GAL4 activation domain fusion (yeast three-hybrid)
[3] = biological target: T1, Nucleostemin (Homo sapiens) (UniProt Q9BVP2); conditions: yeast three-hybrid; protein in cells; protein details: GAL4 activation domain fusion; label: 5' 32P (EMSA)
T1 sequence (looked up, limits assumed): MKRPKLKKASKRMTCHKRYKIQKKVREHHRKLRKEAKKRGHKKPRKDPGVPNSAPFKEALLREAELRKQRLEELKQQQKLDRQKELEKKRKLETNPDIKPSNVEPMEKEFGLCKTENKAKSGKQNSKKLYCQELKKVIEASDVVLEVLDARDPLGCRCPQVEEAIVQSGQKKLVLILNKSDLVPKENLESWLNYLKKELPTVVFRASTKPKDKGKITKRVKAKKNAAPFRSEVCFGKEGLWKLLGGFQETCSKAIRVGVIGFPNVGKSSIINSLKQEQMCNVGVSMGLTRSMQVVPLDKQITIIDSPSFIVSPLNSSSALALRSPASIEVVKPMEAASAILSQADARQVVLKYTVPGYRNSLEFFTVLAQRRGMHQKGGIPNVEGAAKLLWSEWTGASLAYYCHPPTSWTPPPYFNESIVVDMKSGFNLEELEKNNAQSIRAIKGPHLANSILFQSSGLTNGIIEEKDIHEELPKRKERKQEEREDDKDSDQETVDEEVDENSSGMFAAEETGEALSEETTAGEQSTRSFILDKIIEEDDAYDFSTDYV

MGC14595 (Homo sapiens) = biological target: T2, MGC14595 (Homo sapiens) (UniProt Q9BRU9); conditions: yeast three-hybrid; protein in cells; protein details: GAL4 activation domain fusion; label: 5' 32P (EMSA)
T2 sequence (looked up, limits assumed): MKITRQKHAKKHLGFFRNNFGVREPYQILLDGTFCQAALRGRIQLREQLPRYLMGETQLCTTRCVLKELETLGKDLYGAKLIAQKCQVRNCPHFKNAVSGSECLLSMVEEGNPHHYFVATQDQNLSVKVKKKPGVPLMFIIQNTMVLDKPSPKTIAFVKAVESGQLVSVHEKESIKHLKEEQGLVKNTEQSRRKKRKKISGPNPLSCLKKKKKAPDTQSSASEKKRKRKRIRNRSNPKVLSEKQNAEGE

[4] = biological target: Ribosomal protein S3a (Homo sapiens) (UniProt P61247); conditions: yeast three-hybrid; protein in cells; protein details: GAL4 activation domain fusion; label: 5' 32P (EMSA)
RPL26 d7 (Homo sapiens) = RPL26 d7 (Homo sapiens) (UniProt P61254); conditions: binding stated to correlate with p53 induction; assay not specified; protein in cells; protein details: EGFP; label: 5' 32P (EMSA)
CCT5 (Homo sapiens) = CCT5 (Homo sapiens) (UniProt P48643); conditions: yeast three-hybrid; protein in cells; protein details: GAL4 activation domain fusion; label: 5' 32P (EMSA)
RPL26 d1 (Homo sapiens) = RPL26 d1 (Homo sapiens) (UniProt P61254); conditions: binding stated to correlate with p53 induction; assay not specified; protein in cells; protein details: EGFP; label: 5' 32P (EMSA)
[5] = biological target: Ribosomal protein S13 (Homo sapiens) (UniProt P62277); conditions: yeast three-hybrid; protein in cells; protein details: GAL4 activation domain fusion; label: 5' 32P (EMSA)
[6] = biological target: DKFZP564M182 (Homo sapiens) (UniProt O76021); conditions: yeast three-hybrid; protein in cells; protein details: GAL4 activation domain fusion; label: 5' 32P (EMSA)
RPL26 d5 (Homo sapiens) = RPL26 d5 (Homo sapiens) (UniProt P61254); conditions: binding stated to correlate with p53 induction; assay not specified; protein in cells; protein details: EGFP; label: 5' 32P (EMSA)
[7] = biological target: Ribosomal protein L5 (Homo sapiens) (UniProt P46777); conditions: yeast three-hybrid; protein in cells; protein details: GAL4 activation domain fusion; label: 5' 32P (EMSA)
RPL26 d2 (Homo sapiens) = RPL26 d2 (Homo sapiens) (UniProt P61254); conditions: bound 5'UTR but did not induce p53; binding assay not specified; protein in cells; protein details: EGFP; label: 5' 32P (EMSA)

Measured: binding result

GGUUUUCCCCUCCCAUGUGCUCAAGACUGGCGCUAAAAGUUUUGAGCUUCUCAAAAGUCUAGAGCCACCGUCCAGGGAGCAGGUAGCUGCUGGGCUCCGGGGACACUUUGCGUUCGGGCUGGGAGCGUGCUUUCCACGACGGUGACACGCUUCCCUGGAUUGGCAGCCAGACUGCCUUCCGGGUCACUGCCAU [p53 5'UTR (-191 to 2)]
binds: [1] | RPL26 d4 (Homo sapiens) | [2] | RPL26 (Homo sapiens); yeast three-hybrid, label: 5' 32P (EMSA) | [3] | MGC14595 (Homo sapiens) | [4] | RPL26 d7 (Homo sapiens) | CCT5 (Homo sapiens) | RPL26 d1 (Homo sapiens) | [5] | [6] | RPL26 d5 (Homo sapiens) | [7] | RPL26 d2 (Homo sapiens)

UCGGGCUGGGAGCGUGCUUUCCACGACGGUGACACGCUUCCCUGGAUUGGCAGCCAGACUGCCUUCCGGGUCACUGCC [p53 5'UTR -78 to -1]
binds: RPL26 (Homo sapiens); yeast three-hybrid mapping, variant of p53 5'UTR (-191 to 2)
